PubChem BioAssay AID602196 | INSERM | 2012

- Purpose: 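Knock-downs that protect lung cancer cells from cisplatin or sensitise them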
- System: human A549 lung cancer cells
- Reagents: siRNA pair against human genes
- Duration: 48 h transfection before cisplatin; time from cisplatin to read-out not stated
- Conditions: cisplatin at a dose killing half of control-siRNA cells; exact dose and duration not given
- Measured: 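Shift in cisplatin death relative to control siRNA, from -50 (all cells die) to +50 (no cells die); siRNAs harmful on their own scored 0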
- Reading the numbers: two-siRNA summed score (-2 to +2): higher = both siRNAs protect from cisplatin killing; -2 means both sensitise; mean protection from cisplatin (shift in death): higher = protection from cisplatin killing
- Call rule: 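Each siRNA scores 0 if harmful alone by LDH or WST-1, otherwise +1 if it reduces and -1 if it increases cisplatin killing; a gene is active when both siRNAs agree (sum +2 or -2)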
- Meaning of the calls: active = both siRNAs shift cisplatin killing the same way; inactive = no consistent shift, or siRNA harmful alone
Here is an unselected part of about 23,000 reagents tested. In the full data, 455 (2%) got an active call. 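Active includes both protection and sensitisation; some change values fall well beyond the stated -50 to +50 range.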 Entries without a mark were called inactive. Further read-outs or replicates are left out here. Not stated in the record: the amount of reagent.

For TAC3, the entry reads two-siRNA summed score (-2 to +2) = -1; mean protection from cisplatin (shift in death) (%) = -9.6.
For ZNF177 the deposit lists two-siRNA summed score (-2 to +2) = 0; mean protection from cisplatin (shift in death) (%) = 0.8.
Silencing of LINC01107 gave: two-siRNA summed score (-2 to +2) = 0; mean protection from cisplatin (shift in death) (%) = 9.2.
LOC387977 scored two-siRNA summed score (-2 to +2) = 0; mean protection from cisplatin (shift in death) (%) = 5.2.
VSNL1 scored two-siRNA summed score (-2 to +2) = -1; mean protection from cisplatin (shift in death) (%) = -22.8.
With knock-down of LINC01785, the screen gave two-siRNA summed score (-2 to +2) = 0; mean protection from cisplatin (shift in death) (%) = 17.6.
For TONSL, the values are two-siRNA summed score (-2 to +2) = 0; mean protection from cisplatin (shift in death) (%) = 12.1.
After knock-down of LINC02864, the record shows two-siRNA summed score (-2 to +2) = 1; mean protection from cisplatin (shift in death) (%) = 5.
Against PER1 the deposit lists two-siRNA summed score (-2 to +2) = -1; mean protection from cisplatin (shift in death) (%) = -13.6.
With knock-down of S100Z, the screen gave two-siRNA summed score (-2 to +2) = 0; mean protection from cisplatin (shift in death) (%) = 2.9.
COX11 gave two-siRNA summed score (-2 to +2) = -1; mean protection from cisplatin (shift in death) (%) = -15.1.
With knock-down of DNAJC1 the results were two-siRNA summed score (-2 to +2) = 0; mean protection from cisplatin (shift in death) (%) = 2.8.
